Some entries share one result that the patent states for a list of compounds. Some ranges recur; such a range may be that of the whole group of compounds.
Key:
[1] = tested on: HCT116-(CA)13 cells; conditions: 50 μM CCNU with 2.5 mM NAC, 5 mM GSH, 250 μM vitamin C, 1.5 μM curcumin or 150 μM eugenol
Description: After treatment, HCT116-(CA)13 cells in 96-well glass plates (Corning-Costar®) were fixed with 4% paraformaldehyde and nuclei were stained with 1 μg/ml Hoechst 33258. Fluorescent images of the cells were acquired at 100× magnification by ImageXpress^Micro system (Molecular Devices) and analyzed with MetaXpress® V3.1 software as described previously [Li et al., 2014]. The frequency of frameshift mutations of the (CA)13 microsatellite is expressed as the percentage of the DsRed^+GFP^+Hoechst^+ subpopulation in the GFP^+Hoechst^+ population.

[2] = tested on: HCT116-(CA)13 cells; assay: Frameshift mutation (MSI) analysis by flow cytometry with dual-fluorescent reporter; conditions: for vulnerability of (CA)13 microsatellite relative to (N)16 random sequence: 50 μM CCNU, 25 nM methotrexate, 5 μM etoposide, 25 nM vinblastine, 1 μM oxaliplatin

SMILES	suppression of CCNU-induced MSI [1]	vulnerability of (CA)13 microsatellite relative to (N)16 random sequence [2]	MSI frequency relative to 5-FU, CCNU and methotrexate ([2]; at the highest doses tested)
CC(=O)N[C@@H](CS)C(=O)O [NAC, N-acetylcysteine]	56-66%	–	–
CN(Cc1cnc2nc(N)nc(N)c2n1)c1ccc(C(=O)N[C@@H](CCC(=O)O)C(=O)O)cc1 [methotrexate, (2S)-2-[[4-[(2,4-diaminopteridin-6-yl)methyl-methylamino]benzoyl]amino] pentanedioic acid]	–	1.7-9.1 fold	–
O=NN(CCCl)C(=O)NC1CCCCC1 [CCNU, 1-(2-chloroethyl)-3-cyclohexyl-1-nitrosourea]	–	1.7-9.1 fold	–
CC[C@]1(O)C[C@@H]2CN(CCc3c([nH]c4ccccc34)[C@@](C(=O)OC)(c3cc4c(cc3OC)N(C)[C@H]3[C@@](O)(C(=O)OC)[C@H](OC(C)=O)[C@]5(CC)C=CCN6CC[C@]43[C@@H]65)C2)C1 [vinblastine]	–	1.7-9.1 fold	3-5 fold
